1 substance from publication PMC9938559 can be followed below.

Amino acid sequences for entries named in this document (tags omitted).
UniProt P07910: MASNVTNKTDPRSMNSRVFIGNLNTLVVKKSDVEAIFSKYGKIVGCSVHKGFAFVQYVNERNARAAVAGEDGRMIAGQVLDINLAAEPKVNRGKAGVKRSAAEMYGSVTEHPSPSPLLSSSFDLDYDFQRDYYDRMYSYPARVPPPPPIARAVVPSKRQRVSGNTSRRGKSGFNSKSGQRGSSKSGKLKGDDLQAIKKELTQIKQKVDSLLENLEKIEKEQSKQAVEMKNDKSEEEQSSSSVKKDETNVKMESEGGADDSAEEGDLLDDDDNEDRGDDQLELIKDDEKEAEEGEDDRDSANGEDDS

These are yes or no findings as the source states them, for the method shown. Binding seen in cells or lysates may run through a third protein. Some results given as binding are weak or reduced against the parent protein; the word gives no strength.

In the assay the target is heterogeneous nuclear ribonucleoprotein C (human (endogenous in KGN)) (UniProt P07910). Nature of the assay: co-IP; KGN cells lysed in RIPA buffer; IP antibody on magnetic beads, incubated with the lysate overnight at 4 °C, Western blot; cells with DANCR knockdown (shDANCR), DANCR overexpression or controls. A general note: In western blotting, separated proteins are transferred to a membrane and probed.

For p53 (from UniProt P04637 1-393), the binding result is “binds”.
